These are yes or no findings as the source states them, for the method shown. Binding seen in cells or lysates may run through a third protein. Some binding calls cover weakened binding; strength is not graded here.

Sequences of proteins named here, by UniProt entry; tags and fusion partners are left off. Residues count along the entry.
UniProt Q8WUM4, residues 362-702: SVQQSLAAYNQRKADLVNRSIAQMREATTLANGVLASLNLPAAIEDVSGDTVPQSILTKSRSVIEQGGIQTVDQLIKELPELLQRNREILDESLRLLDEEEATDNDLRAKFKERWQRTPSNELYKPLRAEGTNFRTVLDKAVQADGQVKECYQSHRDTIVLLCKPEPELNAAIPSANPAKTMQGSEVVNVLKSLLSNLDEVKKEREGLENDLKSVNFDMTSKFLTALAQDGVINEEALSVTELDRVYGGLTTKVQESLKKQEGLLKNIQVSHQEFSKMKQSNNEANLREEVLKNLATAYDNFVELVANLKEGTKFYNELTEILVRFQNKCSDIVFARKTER
UniProt P19525: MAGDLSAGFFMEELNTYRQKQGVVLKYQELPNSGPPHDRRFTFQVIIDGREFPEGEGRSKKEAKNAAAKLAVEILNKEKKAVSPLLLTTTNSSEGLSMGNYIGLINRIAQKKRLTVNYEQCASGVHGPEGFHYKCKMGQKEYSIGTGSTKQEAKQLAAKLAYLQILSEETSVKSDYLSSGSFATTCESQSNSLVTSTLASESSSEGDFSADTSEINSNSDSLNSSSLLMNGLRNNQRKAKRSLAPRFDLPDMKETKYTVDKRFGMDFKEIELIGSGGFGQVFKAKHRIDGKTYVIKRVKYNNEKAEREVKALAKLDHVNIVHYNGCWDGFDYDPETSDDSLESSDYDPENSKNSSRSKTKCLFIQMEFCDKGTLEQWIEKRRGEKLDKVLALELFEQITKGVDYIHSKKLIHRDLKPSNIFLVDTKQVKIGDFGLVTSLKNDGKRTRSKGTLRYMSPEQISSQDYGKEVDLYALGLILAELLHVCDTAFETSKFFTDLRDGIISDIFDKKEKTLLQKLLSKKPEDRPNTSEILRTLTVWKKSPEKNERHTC

The results in this text go back to patent US20240409935A1, “Atg8ylation coordinates stress granule formation and mTOR inactivation in response to lysosomal damage” (priority 2023, published 2024).

For this experiment, the target named is FLAG-tagged V domain of ALIX (UniProt Q8WUM4). Description: co-IP with anti-FLAG from HEK293T cells expressing FLAG tagged ALIX constructs and Myc-PKR.

Turning to “Myc-PKR (from UniProt P19525 1-551) (enzyme)”, the binding entry is given as “binds”.
